Experimental data published in publication PMC7819943, “Rice protein-binding microarrays: a tool to detect cis-acting elements near promoter regions in rice”.
Some of the results follow.

These sequences were tested against T1, OsSMF1 (Oryza sativa, UniProt Q6ZLB0 1-436) (assay: protein-binding microarray (RPBM); PBS, 2% BSA, 51.3 ng/ul salmon testes DNA, 50 uM zinc acetate, 200 nM TF, 25 C, 1 h; high values mean tight binding). Conditions: protein: recombinant; tags: N-terminal polyhistidine and DsRed monomer fusion (pET32a); chain copies: 2; label: CyDye5-dUTP incorporated in the synthesized complementary strand; 3' TTTTT single-stranded linker to array surface; dsDNA, one strand shown.
T1 sequence: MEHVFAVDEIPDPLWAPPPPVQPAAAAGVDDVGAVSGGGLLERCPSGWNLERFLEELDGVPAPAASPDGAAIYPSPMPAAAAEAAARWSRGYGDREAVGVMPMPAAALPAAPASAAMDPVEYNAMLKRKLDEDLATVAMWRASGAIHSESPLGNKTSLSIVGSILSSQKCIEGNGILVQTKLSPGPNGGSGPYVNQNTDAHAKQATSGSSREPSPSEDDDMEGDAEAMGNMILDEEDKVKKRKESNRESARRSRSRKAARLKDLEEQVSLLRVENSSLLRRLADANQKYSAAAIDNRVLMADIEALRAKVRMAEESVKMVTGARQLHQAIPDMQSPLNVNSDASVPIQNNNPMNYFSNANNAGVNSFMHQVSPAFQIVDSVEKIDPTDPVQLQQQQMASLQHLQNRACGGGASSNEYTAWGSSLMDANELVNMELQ
Outline: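 Binding signal is defined as the fluorescence intensity of each feature in arbitrary units, read on an Axon 4000B scanner. Transcription factors with N-terminal polyhistidine and DsRed fusions came from E. coli BL21-CodonPlus and were purified on Ni–NTA. They were incubated at 200 nM for 1 h at 25 °C on a custom Agilent array that had been made double-stranded with Cy5-dUTP, with 50 µM zinc acetate present, and the array was washed.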

Sequence | binding signal
TGCTAATACACCGTATGACGTATTATCCATATTCGGCCAACGGAGTCACCTAGTGCAG | 7520 fluorescence intensity (a.u.)
TGCCTACCGATGACGCAGTCCTCCCTCCTTTCTTTTCGGTCGGAGTCACCTAGTGCAG | 8400 fluorescence intensity (a.u.)
GAAGAGAGAGGAGGCTGATGTGGCCACGCTGACATGTGGGCGGAGTCACCTAGTGCAG | 8310 fluorescence intensity (a.u.)
ATACAAGATCAATATCCGTGCTGACGCAAATAGGAAATGGCGGAGTCACCTAGTGCAG | 3850 fluorescence intensity (a.u.)
CCACATGCCAATTGTGATGGAGATGGACAATGCTGAAATTCGGAGTCACCTAGTGCAG | 3150 fluorescence intensity (a.u.)
TTACTATATGGGCGACCACTGGCAACATGGTCCCACGTGCCGGAGTCACCTAGTGCAG | 3760 fluorescence intensity (a.u.)
CAAAGCAAAACCTTGGGCAGAACACGTACTCCCTCCGTTTCGGAGTCACCTAGTGCAG | 3620 fluorescence intensity (a.u.)
CTTGGTGGTTTTATAGGGTGGTTTCGCTGACGTGGCGTGGCGGAGTCACCTAGTGCAG | 44600 fluorescence intensity (a.u.)
CTCTTTTATAATAGTAGTCCATCTCTTAACACTAGTCAACCGGAGTCACCTAGTGCAG | 3260 fluorescence intensity (a.u.)
AAAGTTGCTGCTCGATGGGTTATGACTTTAGCTTTGGTCGCGGAGTCACCTAGTGCAG | 4400 fluorescence intensity (a.u.)
TTTAAGTACAGTCATGATTTTCCGTGCACAACTTTAACCGCGGAGTCACCTAGTGCAG | 4160 fluorescence intensity (a.u.)
GAATGAATTGGTGCCACGTGTCAAGAGAACGAACGGGCTTCGGAGTCACCTAGTGCAG | 24900 fluorescence intensity (a.u.)
CGCGAGGTACTGTGGATGAATTTGAGCTGTATCGCGAGTGCGGAGTCACCTAGTGCAG | 3540 fluorescence intensity (a.u.)
ACCAAACAGCAACCTATCAAGCAATGACAAATACTTTCCACGGAGTCACCTAGTGCAG | 3380 fluorescence intensity (a.u.)
CGCCATGTCAGCTTCATCCTCGCCACGTCCTCCCATGTCACGGAGTCACCTAGTGCAG | 17400 fluorescence intensity (a.u.)
GTTGGTCATTTCATCTCCATGCCGACTGCGTCAGCTATTGCGGAGTCACCTAGTGCAG | 3300 fluorescence intensity (a.u.)
CCGTGCTCCGCGCCACGACGACGACGACGACCACCACCACCGGAGTCACCTAGTGCAG | 3210 fluorescence intensity (a.u.)
AATCACGGTATCTCTCATGATTTTCACGGTAACTACAGTTCGGAGTCACCTAGTGCAG | 20800 fluorescence intensity (a.u.)
CCTGTGATTGCTCGGTAATATTAACTTGATCGCTTGCACACGGAGTCACCTAGTGCAG | 3360 fluorescence intensity (a.u.)
CTTGAACATATACGTGGGCGTGTAATAAAGGACTTTCTTCCGGAGTCACCTAGTGCAG | 4280 fluorescence intensity (a.u.)
GCTCGTTGTCATCACCTGCTCCAAGCCACGGGGCCTCCTCCGGAGTCACCTAGTGCAG | 3720 fluorescence intensity (a.u.)

Retrieved one by one from the entries so far:
Sequence | binding signal
AAAGTTGCTGCTCGATGGGTTATGACTTTAGCTTTGGTCGCGGAGTCACCTAGTGCAG | 4400 fluorescence intensity (a.u.)
CGCCATGTCAGCTTCATCCTCGCCACGTCCTCCCATGTCACGGAGTCACCTAGTGCAG | 17400 fluorescence intensity (a.u.)
TGCTAATACACCGTATGACGTATTATCCATATTCGGCCAACGGAGTCACCTAGTGCAG | 7520 fluorescence intensity (a.u.)

Additional entries follow.

Sequence | binding signal
CAATCAATGACATGTGGGTCCCTCCTTTTGACTCAGCAAGCGGAGTCACCTAGTGCAG | 10500 fluorescence intensity (a.u.)
CAATCTCGAGATTCTCCGCTGCTATTATCCCCGATCCAAACGGAGTCACCTAGTGCAG | 3550 fluorescence intensity (a.u.)
AGGACACGTAGCATTTCCTCCTCAAGCAAGAGGAGCAGTACGGAGTCACCTAGTGCAG | 4000 fluorescence intensity (a.u.)
GGATTGAATTAAACCCTTACATCTAAACTTGCGTGTCAGTCGGAGTCACCTAGTGCAG | 5600 fluorescence intensity (a.u.)
GTGTAACACGATTACACGTGTAGCGCACATAAGCACCAAACGGAGTCACCTAGTGCAG | 4330 fluorescence intensity (a.u.)
CTTCTGCCGCGCCACCAACCATCCATCGCTGACGCTTCCACGGAGTCACCTAGTGCAG | 4170 fluorescence intensity (a.u.)
GCGTACCCATCTTAGTGAGTAGGACGGAGCCATGGAGGGTCGGAGTCACCTAGTGCAG | 3860 fluorescence intensity (a.u.)
CCGCCGGCGAGCCCTCGCCTTCCTCCACGCGGCCAGCGCCCGGAGTCACCTAGTGCAG | 3300 fluorescence intensity (a.u.)
GCGCCGTCGTCGTCGCTGCCGTGGCGCCGCCGCGGCCACCCGGAGTCACCTAGTGCAG | 6800 fluorescence intensity (a.u.)
CCAAGATTTCACAGCTGAGGATTCCACGCGCGAAGACATCCGGAGTCACCTAGTGCAG | 3180 fluorescence intensity (a.u.)
GGTGCTTATACTGGTAGGATACGTGTGTATAGGTGAGCGTCGGAGTCACCTAGTGCAG | 3430 fluorescence intensity (a.u.)
TTTGGGAGAATGGTCAGTCAGCTTACGTGGAGAGCCCAGTCGGAGTCACCTAGTGCAG | 14200 fluorescence intensity (a.u.)
GCGGGTCGCTCCTGCCTGTGTCAGCCCCAACAGCTACTGCCGGAGTCACCTAGTGCAG | 4070 fluorescence intensity (a.u.)
CCTGCCTACCTCCGCGACATGCCGACGAGGCAGGTGGTGGCGGAGTCACCTAGTGCAG | 3710 fluorescence intensity (a.u.)
CAGTAGACCAGCCTTTGTCCCCTAGTCAGCCAACTGTTCCCGGAGTCACCTAGTGCAG | 3440 fluorescence intensity (a.u.)
CATCTCAATCCTACAGCGCAGTAGATACCCCGGGCAAGGTCGGAGTCACCTAGTGCAG | 3300 fluorescence intensity (a.u.)
TTGACATGTGGGTCTCAAATGTTATTTTAATTTATTTTCCCGGAGTCACCTAGTGCAG | 4020 fluorescence intensity (a.u.)
ATACGGACGCACATTTGAAGTATTAAACGTAGAGTAATAACGGAGTCACCTAGTGCAG | 19700 fluorescence intensity (a.u.)
TCTCCTCCTCGGTTGCAAGCTGCTTCTGCCTTCTGCTGGGCGGAGTCACCTAGTGCAG | 3370 fluorescence intensity (a.u.)
GAGGTGGAGAGTTATTGAAAGTAAAGAACATATAGCTCCACGGAGTCACCTAGTGCAG | 3260 fluorescence intensity (a.u.)
AGAGGCAGCACCGCCGCCGGGGCAATCGAGCAGGCGGAGGCGGAGTCACCTAGTGCAG | 3460 fluorescence intensity (a.u.)
